# Test results taken from paper PMC7615972.
# By UniProt entry, the sequences of proteins in these tests, tags left out. Residues count along the entry.
# UniProt Q6PDJ1, residues 50-1109: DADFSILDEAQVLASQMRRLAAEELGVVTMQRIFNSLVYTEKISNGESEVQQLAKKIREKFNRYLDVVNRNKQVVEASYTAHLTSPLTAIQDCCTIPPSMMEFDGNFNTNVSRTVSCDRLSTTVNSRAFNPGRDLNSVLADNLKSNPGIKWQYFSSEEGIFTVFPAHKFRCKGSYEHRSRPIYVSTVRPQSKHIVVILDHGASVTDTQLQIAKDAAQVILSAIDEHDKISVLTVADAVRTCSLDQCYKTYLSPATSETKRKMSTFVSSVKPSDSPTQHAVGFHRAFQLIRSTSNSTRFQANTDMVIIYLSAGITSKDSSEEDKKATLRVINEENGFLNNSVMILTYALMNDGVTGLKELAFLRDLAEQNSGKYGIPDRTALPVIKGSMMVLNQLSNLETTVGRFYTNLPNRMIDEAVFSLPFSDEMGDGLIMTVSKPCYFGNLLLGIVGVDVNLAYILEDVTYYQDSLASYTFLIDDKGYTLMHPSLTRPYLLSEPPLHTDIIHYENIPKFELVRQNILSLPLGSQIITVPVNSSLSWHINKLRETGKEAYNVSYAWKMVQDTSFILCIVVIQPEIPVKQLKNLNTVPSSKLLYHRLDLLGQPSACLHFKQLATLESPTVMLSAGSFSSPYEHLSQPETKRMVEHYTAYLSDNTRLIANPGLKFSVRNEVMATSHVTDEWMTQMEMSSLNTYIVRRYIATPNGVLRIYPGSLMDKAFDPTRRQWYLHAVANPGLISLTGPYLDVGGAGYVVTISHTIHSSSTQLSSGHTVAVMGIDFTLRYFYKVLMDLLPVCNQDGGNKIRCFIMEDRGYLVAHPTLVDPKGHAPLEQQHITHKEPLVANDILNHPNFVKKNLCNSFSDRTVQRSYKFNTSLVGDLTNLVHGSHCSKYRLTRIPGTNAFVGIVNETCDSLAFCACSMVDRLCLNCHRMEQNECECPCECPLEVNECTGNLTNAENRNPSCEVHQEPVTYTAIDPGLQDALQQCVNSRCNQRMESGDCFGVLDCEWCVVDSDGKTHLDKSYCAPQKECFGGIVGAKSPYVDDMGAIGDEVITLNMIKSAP
# These are yes or no findings as the source states them, for the method shown. Some entries that bind do so weakly or less than the wild type.
# What was measured:
# [1] = target: T1, human LRP6 membrane proximal fragment (LRP6_(P3E3P4E4)) (human) (UniProt O75581); assay: crystal structure; cocrystallization of CACHD1ECD with FZD5CRD and LRP6_(P3E3P4E4); 4.7 Å; molecular replacement; three ternary complexes in the asymmetric unit; both purified
# T1 sequence: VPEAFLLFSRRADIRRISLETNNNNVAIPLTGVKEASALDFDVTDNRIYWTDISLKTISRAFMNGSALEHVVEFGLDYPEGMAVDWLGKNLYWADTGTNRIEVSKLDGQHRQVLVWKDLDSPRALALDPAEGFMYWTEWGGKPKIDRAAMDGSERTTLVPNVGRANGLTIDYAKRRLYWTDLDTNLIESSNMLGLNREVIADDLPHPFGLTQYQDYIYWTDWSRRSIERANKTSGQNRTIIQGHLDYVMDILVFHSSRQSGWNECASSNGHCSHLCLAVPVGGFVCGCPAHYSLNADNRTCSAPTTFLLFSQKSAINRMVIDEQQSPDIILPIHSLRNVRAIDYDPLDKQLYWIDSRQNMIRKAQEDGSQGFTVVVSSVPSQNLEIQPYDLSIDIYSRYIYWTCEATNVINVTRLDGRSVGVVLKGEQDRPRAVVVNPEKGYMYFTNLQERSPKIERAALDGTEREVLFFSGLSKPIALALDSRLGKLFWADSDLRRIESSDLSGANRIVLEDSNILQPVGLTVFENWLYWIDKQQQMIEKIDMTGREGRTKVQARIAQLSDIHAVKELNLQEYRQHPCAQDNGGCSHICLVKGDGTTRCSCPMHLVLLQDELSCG
# [2] = target: T2, mouse FZD5 cysteine-rich domain (FZD5CRD) (mouse) (UniProt Q9EQD0); assay: as above
# T2 sequence: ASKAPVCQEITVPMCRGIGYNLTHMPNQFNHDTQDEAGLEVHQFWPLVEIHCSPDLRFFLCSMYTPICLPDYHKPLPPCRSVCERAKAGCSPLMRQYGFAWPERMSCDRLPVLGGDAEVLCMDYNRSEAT
substance,measurement,setting,value
purified mouse CACHD1 extracellular domain (CACHD1ECD) (from UniProt Q6PDJ1 50-1109) (domain or fragment),binding,[1],binds
same,binding,[2],binds
